{"source": "paper PMC11862611", "about": "“Simple accessible clemastine fumarate analogues as effective antileishmanials” (RSC Medicinal Chemistry, 2025)", "key": {"[1]": {"test_system": "L. major ΔLCB2 promastigotes", "format": "cell-based, Leishmania major", "settings": "EC50 WT versus ΔLCB2 L. major promastigotes"}, "[2]": {"target": "T1, LmjIPCS (Leishmania major, UniProt E9AFX2)", "T1 construct": "made in house", "assay": "HPTLC based LmjIPCS assay", "format": "biochemical", "settings": "microsomes treated with 5 mM compound; NBD-C6-ceramide and PI", "text": "CF was originally selected from a screen for inhibitors of the sphingolipid synthase, (L. majIPCS) and to verify that this new analogue retained this profile we applied the same assays as used before. […] To support inhibition of the IPCS, the HPTLC biochemical assay described by Mina et al.[16] was employed. In this, using a microsomal preparation of the L. majIPCS, a fluorescent substrate NBD-C6-ceramide was combined with PI and the two drugs. Following the reaction, the product, NBD-C6-IPC, and residual starting material were separated via HPTLC and analysed by fluorescence spectroscopy.\n°C and 5% CO2. Aliquots of resazurin solution (10 μL) were then added and the cells were incubated at 37 °C and 5% CO2 for 4 h. Cell-viability measurement was carried out using a fluorescence plate reader. […]\n(§1) days. Infected ear thicknesses were measured once or twice a week with a caliper gauge, and the lesion sizes were expressed as the difference between the thickness of infected and non-infected ear. On day 41 animals were sacrificed and the fluorescence measured (485 - 528 nm) and parasite load quantified using a limiting dilution assay (LDA).\n(§2) Data on lesion progression were analysed for statistical significance by using the Dunnett test as part of the one-way ANOVA (GraphPad Prism 8 software). […]\nProduct quantification was carried out using a fluorescence plate reader"}, "[3]": {"test_system": "L. amazonensis GFP promastigotes", "assay": "mouse model of L. amazonensis infection (ear, IL dosing)", "settings": "1.2 mg kg^−1 IL twice a week for 4 weeks", "experimental": "Consequently, we used IL dosing for this experiment. To enable direct comparison with CF, the same treatment regimen (dose of 1.2 mg kg^−1via IL injection twice a week for 4 weeks starting on DPI) was used for both compounds.\nA Weight variation of mice during 28 days of treatment. B Progression of lesion thickness over 28 day treatment period. C Representative photographs of the infected ear for each group taken after completion of treatment, D parasite burden was evaluated by LDA on 36 days post infection. […]\nIn vivo assays were conducted as previously reported 1. Two month old BALB/c female mice, weighing 20 - 25 g and of approximately the same age were used for the study. For infection of mice, stationary phase GFP L. amazonensis promastigotes were collected, washed and suspended in sterile PBS. A volume of 10 μl of sterile PBS containing 2 x 10^6 parasites was injected into the right ear. […]\nas §1, with “Infected” for “days. Infected”\nas §2"}, "[4]": {"target": "T2, L. majIPCS (Leishmania major, UniProt E9AFX2)", "T2 sequence (E9AFX2 1-338)": "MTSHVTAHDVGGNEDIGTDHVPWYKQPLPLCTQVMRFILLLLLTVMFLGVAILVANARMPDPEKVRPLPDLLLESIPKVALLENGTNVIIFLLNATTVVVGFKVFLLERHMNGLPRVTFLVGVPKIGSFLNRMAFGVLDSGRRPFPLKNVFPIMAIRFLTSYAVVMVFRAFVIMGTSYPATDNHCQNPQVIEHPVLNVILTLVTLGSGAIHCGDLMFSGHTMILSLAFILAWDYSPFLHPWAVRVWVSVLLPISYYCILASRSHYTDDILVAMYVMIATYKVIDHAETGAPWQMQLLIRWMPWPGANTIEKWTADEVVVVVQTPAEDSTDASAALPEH", "settings": "ref Mina et al.1, cited from earlier work"}, "[5]": {"test_system": "L. major promastigotes (FV1) WT", "settings": "read-out: L. major promastigote EC50; ref Mina et al.1; cited from earlier work"}, "[6]": {"test_system": "L. amazonensis promastigotes", "settings": "read-out: L. amaz promastigote EC50; ref Mina et al.1; cited from earlier work"}, "[7]": {"test_system": "bone marrow derived macrophages (BMDM)", "settings": "read-out: BMDM CC50; ref Mina et al.1; cited from earlier work"}}, "note": "Counter-ions that a name gives are not always drawn.", "data": [{"smiles": "CN1CCC[C@@H]1CCO[C@](C)(c1ccccc1)c1ccc(Cl)cc1", "note": "[1a, clemastine fumarate]", "values": [{"measurement": "times more active against WT than mutant ΔLCB2 promastigotes", "setting": "[1]", "result": "approximately 3 times"}, {"measurement": "NBD-C6-IPC product formation (HPTLC)", "setting": "[2]", "result": "No product was observed"}, {"measurement": "weight variation of mice during treatment", "setting": "[3]", "result": "small weight loss"}, {"measurement": "LmjIPCS inhibition % at 20 µM ± SD", "setting": "[4]; 20 µM", "result": "82.6 ± 9.3", "unit": "%"}, {"measurement": "IC50", "setting": "[4]; read-out: LmjIPCS IC50", "result": 2870, "unit": "nM"}, {"measurement": "EC50", "setting": "[5]", "result": 179, "unit": "nM"}, {"measurement": "EC50", "setting": "[6]", "result": 27, "unit": "nM"}, {"measurement": "CC50", "setting": "[7]", "result": 19100, "unit": "nM"}]}]}
